Patent US20110288010A1, “UTILIZATION OF PEPTIDES AS ACTIVE INGREDIENTS FOR SLIMMING” (SOCIETE D'EXTRACTION DES PRINCIPES ACTIFS SA (VINCIENCE), priority 2006, published 2011)
Not every detail of the peptide structures is certain; ends, links or a residue may be inferred. Ends that are not written are not given here.

System: pre-adipocyte cell line 3T3-L1
Assay: Oil Red staining of lipid vacuoles in 3T3-L1 pre-adipocytes differentiated into mature adipocytes
Assay type: cell-based
Conditions: mature 3T3-L1 adipocytes treated with peptide solution at 1%, microscope observation

GLYDNLE [sequence ID N^o (5), Gly Leu Tyr Asp Asn Leu Glu]
morphology of mature adipocytes (versus nontreated controls (voluminous spherical shape)): less rounded morphology
content of intra-adipocyte lipid vesicles (versus nontreated controls): clearly diminished
